The other results are listed elsewhere or left out. Small differences around the control level are noise.
compound: CN[C@@H]1C[C@H]2O[C@@](C)([C@@H]1OC)n1c3ccccc3c3c4c(c5c6ccccc6n2c5c31)C(=O)NC4 [staurosporine]; assay: log2 fold change of tryptic peptide abundance, ligand vs vehicle (limited proteolysis) (log2 ratio); higher = more trypsin-susceptible (destabilized); settings: ligand concentration: 20 uM; sample: K562 cleared lysate; digestion: 4 min, 22 C (HT-PELSA RT4min, Orbitrap Astral)

Chains of the proteins cited; added tags and fusions are not shown. Lines headed by an entry give the natural chain unless they say otherwise; changes in a name come on top.
UniProt Q86VV8: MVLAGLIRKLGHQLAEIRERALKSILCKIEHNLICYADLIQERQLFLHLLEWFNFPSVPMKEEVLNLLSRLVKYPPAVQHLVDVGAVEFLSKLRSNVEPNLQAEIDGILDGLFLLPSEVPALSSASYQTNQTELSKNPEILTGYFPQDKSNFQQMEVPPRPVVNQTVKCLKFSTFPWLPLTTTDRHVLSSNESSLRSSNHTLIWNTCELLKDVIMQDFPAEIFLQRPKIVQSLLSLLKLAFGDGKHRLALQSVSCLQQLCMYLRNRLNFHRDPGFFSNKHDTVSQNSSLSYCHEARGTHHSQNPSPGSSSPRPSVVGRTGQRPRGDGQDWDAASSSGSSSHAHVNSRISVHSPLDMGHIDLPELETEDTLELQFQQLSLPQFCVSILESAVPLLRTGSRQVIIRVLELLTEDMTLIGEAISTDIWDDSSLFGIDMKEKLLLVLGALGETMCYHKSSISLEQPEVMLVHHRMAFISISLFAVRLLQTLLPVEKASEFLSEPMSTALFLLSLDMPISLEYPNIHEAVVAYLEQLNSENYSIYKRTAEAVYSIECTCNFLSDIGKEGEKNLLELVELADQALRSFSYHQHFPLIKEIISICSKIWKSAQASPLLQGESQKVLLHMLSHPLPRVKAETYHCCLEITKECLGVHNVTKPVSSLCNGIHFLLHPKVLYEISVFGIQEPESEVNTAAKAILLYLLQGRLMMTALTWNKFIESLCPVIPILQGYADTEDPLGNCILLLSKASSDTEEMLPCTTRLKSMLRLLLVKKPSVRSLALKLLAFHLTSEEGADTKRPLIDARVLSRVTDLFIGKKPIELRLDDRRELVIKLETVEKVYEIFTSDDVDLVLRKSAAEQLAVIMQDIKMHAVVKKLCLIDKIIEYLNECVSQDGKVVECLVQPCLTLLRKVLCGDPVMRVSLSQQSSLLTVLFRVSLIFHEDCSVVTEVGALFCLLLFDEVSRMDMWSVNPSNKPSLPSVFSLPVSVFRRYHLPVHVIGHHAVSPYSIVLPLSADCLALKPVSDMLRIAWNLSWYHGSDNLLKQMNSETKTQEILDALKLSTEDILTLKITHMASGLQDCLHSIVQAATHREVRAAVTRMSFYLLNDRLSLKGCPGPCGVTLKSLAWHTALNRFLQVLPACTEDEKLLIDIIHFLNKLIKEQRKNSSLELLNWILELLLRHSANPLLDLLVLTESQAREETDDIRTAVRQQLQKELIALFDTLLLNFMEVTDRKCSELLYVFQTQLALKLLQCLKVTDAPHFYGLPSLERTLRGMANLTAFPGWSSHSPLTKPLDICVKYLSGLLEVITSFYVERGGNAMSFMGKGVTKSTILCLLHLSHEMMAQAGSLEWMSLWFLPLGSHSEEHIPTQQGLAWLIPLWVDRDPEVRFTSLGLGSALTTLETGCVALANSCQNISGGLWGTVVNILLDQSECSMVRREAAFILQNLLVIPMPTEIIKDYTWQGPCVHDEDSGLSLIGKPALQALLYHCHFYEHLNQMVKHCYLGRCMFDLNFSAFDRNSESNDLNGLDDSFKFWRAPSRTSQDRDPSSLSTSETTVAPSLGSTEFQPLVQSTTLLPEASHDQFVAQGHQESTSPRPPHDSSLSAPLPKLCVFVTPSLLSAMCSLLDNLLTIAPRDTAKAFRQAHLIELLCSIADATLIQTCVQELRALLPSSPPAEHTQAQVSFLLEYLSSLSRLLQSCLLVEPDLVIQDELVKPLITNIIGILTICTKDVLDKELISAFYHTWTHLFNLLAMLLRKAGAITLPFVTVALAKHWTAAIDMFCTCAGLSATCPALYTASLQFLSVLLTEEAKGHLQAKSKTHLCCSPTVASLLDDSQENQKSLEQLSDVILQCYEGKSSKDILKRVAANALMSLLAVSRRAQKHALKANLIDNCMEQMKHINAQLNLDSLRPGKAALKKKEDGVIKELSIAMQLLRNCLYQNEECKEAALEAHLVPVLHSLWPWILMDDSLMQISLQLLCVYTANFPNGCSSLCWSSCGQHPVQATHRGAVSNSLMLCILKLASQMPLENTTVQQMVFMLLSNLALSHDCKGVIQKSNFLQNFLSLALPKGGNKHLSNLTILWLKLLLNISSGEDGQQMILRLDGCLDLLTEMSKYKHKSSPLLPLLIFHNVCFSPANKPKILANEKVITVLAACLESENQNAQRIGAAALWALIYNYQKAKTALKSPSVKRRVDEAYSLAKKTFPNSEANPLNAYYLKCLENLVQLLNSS
UniProt Q6ZWH5: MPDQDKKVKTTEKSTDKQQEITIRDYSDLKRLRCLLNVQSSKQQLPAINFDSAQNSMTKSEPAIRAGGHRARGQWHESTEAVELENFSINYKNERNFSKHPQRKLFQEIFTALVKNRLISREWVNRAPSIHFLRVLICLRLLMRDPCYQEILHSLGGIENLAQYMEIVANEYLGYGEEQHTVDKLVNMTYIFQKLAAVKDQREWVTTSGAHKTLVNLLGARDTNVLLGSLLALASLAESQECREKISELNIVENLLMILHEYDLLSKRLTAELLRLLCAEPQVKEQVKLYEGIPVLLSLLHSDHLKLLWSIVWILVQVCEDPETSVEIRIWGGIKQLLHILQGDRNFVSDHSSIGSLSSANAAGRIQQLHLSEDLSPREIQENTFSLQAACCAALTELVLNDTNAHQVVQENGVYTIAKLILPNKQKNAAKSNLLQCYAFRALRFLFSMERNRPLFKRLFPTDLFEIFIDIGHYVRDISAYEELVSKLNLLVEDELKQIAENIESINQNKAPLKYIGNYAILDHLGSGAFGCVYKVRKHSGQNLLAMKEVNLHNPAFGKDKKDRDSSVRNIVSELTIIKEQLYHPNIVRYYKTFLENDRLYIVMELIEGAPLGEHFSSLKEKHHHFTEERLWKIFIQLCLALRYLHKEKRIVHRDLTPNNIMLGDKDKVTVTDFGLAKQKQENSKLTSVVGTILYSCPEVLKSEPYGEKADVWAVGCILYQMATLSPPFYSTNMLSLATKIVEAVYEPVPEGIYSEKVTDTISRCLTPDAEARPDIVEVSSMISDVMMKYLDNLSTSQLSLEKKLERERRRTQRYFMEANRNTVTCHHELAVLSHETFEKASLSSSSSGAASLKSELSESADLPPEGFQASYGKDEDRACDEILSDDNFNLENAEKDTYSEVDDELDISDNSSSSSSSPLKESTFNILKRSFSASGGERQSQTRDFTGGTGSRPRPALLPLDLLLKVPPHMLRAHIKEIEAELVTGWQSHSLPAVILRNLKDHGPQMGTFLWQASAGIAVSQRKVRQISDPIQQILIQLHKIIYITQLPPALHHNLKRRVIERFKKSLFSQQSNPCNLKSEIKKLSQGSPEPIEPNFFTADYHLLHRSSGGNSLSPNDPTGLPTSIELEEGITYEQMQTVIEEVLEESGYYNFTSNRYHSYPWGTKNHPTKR
UniProt Q7Z6M4: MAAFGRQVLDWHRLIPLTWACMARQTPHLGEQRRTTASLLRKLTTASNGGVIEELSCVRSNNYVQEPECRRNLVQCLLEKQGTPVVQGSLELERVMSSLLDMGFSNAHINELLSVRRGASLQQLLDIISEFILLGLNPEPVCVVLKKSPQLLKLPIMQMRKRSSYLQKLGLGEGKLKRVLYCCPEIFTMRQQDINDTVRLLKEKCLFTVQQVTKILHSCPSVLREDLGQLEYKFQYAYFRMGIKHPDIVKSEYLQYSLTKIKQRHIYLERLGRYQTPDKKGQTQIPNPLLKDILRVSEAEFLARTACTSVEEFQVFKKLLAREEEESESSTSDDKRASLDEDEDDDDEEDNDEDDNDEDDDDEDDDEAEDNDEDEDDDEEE
UniProt Q86TP1: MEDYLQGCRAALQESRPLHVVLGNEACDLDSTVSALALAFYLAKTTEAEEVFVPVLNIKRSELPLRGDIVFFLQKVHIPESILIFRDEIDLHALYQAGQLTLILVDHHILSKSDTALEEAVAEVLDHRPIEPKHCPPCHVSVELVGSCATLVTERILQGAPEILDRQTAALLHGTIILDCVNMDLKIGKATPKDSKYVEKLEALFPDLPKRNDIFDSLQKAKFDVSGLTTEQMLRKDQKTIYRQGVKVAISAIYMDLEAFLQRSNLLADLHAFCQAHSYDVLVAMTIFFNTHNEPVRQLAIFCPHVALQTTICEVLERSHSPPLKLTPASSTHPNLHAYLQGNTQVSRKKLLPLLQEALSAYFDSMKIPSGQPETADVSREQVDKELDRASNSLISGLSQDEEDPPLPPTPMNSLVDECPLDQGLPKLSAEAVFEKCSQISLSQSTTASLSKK
UniProt Q7L5N1: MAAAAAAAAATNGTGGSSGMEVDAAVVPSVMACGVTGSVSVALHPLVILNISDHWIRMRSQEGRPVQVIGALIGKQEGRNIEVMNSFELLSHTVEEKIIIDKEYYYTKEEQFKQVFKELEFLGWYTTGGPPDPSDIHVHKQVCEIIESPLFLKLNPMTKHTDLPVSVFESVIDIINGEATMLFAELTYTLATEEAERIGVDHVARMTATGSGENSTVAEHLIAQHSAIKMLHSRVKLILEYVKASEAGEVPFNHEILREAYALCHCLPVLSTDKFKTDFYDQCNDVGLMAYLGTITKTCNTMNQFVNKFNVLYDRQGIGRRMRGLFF
UniProt Q7Z3J3, whole entry: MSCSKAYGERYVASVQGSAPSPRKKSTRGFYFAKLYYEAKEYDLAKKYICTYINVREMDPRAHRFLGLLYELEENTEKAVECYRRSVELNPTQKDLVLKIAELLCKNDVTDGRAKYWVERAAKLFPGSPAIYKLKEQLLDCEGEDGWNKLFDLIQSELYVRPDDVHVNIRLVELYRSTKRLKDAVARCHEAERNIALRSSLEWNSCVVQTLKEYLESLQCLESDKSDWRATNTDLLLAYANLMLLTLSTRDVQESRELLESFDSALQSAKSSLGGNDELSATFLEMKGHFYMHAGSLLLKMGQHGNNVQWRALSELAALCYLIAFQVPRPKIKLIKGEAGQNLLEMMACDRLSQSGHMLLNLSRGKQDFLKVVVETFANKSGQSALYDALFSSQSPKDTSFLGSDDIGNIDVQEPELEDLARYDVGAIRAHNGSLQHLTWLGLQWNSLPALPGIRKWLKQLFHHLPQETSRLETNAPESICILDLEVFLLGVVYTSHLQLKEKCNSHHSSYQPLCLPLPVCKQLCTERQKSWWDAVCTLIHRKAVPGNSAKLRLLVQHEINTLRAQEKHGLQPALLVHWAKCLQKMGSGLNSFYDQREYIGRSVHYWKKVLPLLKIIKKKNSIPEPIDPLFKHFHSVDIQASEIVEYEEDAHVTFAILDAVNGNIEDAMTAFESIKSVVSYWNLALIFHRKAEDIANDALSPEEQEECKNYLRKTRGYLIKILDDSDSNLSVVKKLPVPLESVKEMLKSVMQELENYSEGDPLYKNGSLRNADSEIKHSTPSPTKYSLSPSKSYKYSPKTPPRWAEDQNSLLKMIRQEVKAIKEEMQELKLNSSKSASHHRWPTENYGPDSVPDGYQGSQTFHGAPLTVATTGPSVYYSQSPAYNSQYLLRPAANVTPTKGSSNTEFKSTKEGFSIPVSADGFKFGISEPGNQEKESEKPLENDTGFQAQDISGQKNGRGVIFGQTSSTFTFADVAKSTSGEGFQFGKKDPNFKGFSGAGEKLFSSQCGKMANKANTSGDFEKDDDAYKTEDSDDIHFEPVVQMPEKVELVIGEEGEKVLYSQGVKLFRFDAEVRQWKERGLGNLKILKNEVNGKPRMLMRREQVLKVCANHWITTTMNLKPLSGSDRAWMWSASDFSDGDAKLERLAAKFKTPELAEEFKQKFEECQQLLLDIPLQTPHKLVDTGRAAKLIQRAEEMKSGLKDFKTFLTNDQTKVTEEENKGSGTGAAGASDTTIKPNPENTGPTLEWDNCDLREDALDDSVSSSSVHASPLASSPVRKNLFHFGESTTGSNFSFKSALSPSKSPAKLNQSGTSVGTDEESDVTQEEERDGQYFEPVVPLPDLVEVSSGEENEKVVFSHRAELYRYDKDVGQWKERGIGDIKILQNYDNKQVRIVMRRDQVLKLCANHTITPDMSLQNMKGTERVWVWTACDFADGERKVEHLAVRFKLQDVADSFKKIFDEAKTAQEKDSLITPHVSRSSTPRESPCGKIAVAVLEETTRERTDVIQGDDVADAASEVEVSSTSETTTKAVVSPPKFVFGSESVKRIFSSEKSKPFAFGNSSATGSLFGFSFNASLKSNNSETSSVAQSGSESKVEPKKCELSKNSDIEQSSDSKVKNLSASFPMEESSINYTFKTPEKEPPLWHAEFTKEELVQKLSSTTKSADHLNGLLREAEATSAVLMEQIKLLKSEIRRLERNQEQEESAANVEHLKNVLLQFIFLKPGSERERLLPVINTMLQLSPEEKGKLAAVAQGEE
UniProt Q86TN4: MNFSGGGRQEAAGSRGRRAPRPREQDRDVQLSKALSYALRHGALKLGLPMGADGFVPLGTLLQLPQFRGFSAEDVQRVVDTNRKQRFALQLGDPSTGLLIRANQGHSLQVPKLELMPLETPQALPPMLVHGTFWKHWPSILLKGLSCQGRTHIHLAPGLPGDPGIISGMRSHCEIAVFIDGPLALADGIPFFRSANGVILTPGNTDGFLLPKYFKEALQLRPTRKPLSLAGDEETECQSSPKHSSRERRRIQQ

Row | Target | log2 fold change
1 | UBR3 (peptide sequence: TLDKEER, peptide start residue: 1176) (UniProt Q6ZT12) | 0.262
2 | RTTN (peptide sequence: SSPLLPLLIFHNVCFSPANKPK, peptide start residue: 2115) (UniProt Q86VV8) | 0.391
3 | UniProt Q7Z3J2 (peptide sequence: LNQLSVNLWHLAQR, peptide start residue: 909) | 0.415
4 | NEK10 (peptide sequence: VTVTDFGLAK, peptide start residue: 669) (UniProt Q6ZWH5) | -0.185
5 | UniProt Q6ZRQ5 (peptide sequence: SPLSMLEMVK, peptide start residue: 454) | 0.0454
6 | METTL3 (peptide sequence: VSQEILELLNTTTAK, peptide start residue: 242) (UniProt Q86U44) | -0.351
7 | UniProt Q7Z6W7 (peptide sequence: WHPDKNPENKEEAER, peptide start residue: 30) | 0.14
8 | UniProt Q7Z6M4 (peptide sequence: CLFTVQQVTK, peptide start residue: 205) | 0.0648
9 | ZNF813 (peptide sequence: NSHEAPMTEIKK, peptide start residue: 107) (UniProt Q6ZN06) | -0.384
10 | UniProt Q86TP1 (peptide sequence: RSELPLRGDIVFFLQK, peptide start residue: 60) | 0.517
11 | CYFIP1 (peptide sequence: LMNFMYFQR, peptide start residue: 122) (UniProt Q7L576) | 0.263
12 | ATG14 (peptide sequence: SHILELTSVIFPIEEVK, peptide start residue: 196) (UniProt Q6ZNE5) | -0.258
13 | CLASP1 (peptide sequence: GPPVTPSSEKR, peptide start residue: 707) (UniProt Q7Z460) | 0.328
14 | UniProt Q712K3 (peptide sequence: SLQEEPVEGFR, peptide start residue: 19) | 0.346
15 | INTS8 (peptide sequence: LLVDQMR, peptide start residue: 476) (UniProt Q75QN2) | 0.0964
16 | COPS6 (peptide sequence: SQEGRPVQVIGALIGK, peptide start residue: 60) (UniProt Q7L5N1) | -0.347
17 | DENND4A (peptide sequence: YSISGPHVLPIEK, peptide start residue: 335) (UniProt Q7Z401) | 0.692
18 | PNMA8A (peptide sequence: AETPNNWNATEDQHEPTKPLVR, peptide start residue: 212) (UniProt Q86V59) | 0.37
19 | FAM122B (peptide sequence: RIDFTPVSPAPSPTR, peptide start residue: 108) (UniProt Q7Z309) | 0.256
20 | GPAT4 (peptide sequence: DPTSLEEEIK, peptide start residue: 84) (UniProt Q86UL3) | -0.383
21 | DET1 (peptide sequence: MDHHVSTIKPR, peptide start residue: 1) (UniProt Q7L5Y6) | 1.02
22 | TTC7B (peptide sequence: LIANDDMAELLLGESK, peptide start residue: 37) (UniProt Q86TV6) | 0.387
23 | UniProt Q7Z3J3 (peptide sequence: SALSPSKSPAK, peptide start residue: 2273) | 0.161
24 | KANSL1 (peptide sequence: LVRPNSIVPLSK, peptide start residue: 604) (UniProt Q7Z3B3) | 0.374
25 | TRPT1 (peptide sequence: KPLSLAGDEETECQSSPK, peptide start residue: 225) (UniProt Q86TN4) | 0.317
26 | SETX (peptide sequence: KSSKLCTCTEPIR, peptide start residue: 1222) (UniProt Q7Z333) | 1.05

— the supplement of paper PMC12819154, “High-throughput peptide-centric local stability assay extends protein–ligand identification to membrane proteins, tissues and bacteria” (Nature Structural & Molecular Biology, 2025)
